# According to publication PMC10114496:
# Protein sequences, listed by entry. Tags and fused reporters are not part of them.
# UniProt Q9UER7: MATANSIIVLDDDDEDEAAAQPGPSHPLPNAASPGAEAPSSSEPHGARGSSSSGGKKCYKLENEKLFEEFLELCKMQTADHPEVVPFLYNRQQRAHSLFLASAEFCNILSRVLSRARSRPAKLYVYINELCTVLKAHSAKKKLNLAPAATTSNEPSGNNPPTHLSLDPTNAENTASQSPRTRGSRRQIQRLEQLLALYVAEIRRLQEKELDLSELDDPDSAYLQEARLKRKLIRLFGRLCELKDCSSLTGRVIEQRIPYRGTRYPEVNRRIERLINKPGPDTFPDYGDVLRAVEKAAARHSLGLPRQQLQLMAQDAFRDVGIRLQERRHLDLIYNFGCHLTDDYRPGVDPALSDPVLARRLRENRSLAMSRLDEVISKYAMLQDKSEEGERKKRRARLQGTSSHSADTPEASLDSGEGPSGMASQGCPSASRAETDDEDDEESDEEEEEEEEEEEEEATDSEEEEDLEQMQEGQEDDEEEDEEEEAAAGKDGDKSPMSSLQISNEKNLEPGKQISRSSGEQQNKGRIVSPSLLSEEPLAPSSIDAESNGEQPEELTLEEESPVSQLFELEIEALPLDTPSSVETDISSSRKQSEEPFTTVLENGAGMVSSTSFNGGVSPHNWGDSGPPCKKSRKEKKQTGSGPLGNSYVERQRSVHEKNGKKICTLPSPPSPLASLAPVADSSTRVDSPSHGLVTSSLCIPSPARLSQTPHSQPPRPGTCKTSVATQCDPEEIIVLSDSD
# UniProt Q7Z6Z7: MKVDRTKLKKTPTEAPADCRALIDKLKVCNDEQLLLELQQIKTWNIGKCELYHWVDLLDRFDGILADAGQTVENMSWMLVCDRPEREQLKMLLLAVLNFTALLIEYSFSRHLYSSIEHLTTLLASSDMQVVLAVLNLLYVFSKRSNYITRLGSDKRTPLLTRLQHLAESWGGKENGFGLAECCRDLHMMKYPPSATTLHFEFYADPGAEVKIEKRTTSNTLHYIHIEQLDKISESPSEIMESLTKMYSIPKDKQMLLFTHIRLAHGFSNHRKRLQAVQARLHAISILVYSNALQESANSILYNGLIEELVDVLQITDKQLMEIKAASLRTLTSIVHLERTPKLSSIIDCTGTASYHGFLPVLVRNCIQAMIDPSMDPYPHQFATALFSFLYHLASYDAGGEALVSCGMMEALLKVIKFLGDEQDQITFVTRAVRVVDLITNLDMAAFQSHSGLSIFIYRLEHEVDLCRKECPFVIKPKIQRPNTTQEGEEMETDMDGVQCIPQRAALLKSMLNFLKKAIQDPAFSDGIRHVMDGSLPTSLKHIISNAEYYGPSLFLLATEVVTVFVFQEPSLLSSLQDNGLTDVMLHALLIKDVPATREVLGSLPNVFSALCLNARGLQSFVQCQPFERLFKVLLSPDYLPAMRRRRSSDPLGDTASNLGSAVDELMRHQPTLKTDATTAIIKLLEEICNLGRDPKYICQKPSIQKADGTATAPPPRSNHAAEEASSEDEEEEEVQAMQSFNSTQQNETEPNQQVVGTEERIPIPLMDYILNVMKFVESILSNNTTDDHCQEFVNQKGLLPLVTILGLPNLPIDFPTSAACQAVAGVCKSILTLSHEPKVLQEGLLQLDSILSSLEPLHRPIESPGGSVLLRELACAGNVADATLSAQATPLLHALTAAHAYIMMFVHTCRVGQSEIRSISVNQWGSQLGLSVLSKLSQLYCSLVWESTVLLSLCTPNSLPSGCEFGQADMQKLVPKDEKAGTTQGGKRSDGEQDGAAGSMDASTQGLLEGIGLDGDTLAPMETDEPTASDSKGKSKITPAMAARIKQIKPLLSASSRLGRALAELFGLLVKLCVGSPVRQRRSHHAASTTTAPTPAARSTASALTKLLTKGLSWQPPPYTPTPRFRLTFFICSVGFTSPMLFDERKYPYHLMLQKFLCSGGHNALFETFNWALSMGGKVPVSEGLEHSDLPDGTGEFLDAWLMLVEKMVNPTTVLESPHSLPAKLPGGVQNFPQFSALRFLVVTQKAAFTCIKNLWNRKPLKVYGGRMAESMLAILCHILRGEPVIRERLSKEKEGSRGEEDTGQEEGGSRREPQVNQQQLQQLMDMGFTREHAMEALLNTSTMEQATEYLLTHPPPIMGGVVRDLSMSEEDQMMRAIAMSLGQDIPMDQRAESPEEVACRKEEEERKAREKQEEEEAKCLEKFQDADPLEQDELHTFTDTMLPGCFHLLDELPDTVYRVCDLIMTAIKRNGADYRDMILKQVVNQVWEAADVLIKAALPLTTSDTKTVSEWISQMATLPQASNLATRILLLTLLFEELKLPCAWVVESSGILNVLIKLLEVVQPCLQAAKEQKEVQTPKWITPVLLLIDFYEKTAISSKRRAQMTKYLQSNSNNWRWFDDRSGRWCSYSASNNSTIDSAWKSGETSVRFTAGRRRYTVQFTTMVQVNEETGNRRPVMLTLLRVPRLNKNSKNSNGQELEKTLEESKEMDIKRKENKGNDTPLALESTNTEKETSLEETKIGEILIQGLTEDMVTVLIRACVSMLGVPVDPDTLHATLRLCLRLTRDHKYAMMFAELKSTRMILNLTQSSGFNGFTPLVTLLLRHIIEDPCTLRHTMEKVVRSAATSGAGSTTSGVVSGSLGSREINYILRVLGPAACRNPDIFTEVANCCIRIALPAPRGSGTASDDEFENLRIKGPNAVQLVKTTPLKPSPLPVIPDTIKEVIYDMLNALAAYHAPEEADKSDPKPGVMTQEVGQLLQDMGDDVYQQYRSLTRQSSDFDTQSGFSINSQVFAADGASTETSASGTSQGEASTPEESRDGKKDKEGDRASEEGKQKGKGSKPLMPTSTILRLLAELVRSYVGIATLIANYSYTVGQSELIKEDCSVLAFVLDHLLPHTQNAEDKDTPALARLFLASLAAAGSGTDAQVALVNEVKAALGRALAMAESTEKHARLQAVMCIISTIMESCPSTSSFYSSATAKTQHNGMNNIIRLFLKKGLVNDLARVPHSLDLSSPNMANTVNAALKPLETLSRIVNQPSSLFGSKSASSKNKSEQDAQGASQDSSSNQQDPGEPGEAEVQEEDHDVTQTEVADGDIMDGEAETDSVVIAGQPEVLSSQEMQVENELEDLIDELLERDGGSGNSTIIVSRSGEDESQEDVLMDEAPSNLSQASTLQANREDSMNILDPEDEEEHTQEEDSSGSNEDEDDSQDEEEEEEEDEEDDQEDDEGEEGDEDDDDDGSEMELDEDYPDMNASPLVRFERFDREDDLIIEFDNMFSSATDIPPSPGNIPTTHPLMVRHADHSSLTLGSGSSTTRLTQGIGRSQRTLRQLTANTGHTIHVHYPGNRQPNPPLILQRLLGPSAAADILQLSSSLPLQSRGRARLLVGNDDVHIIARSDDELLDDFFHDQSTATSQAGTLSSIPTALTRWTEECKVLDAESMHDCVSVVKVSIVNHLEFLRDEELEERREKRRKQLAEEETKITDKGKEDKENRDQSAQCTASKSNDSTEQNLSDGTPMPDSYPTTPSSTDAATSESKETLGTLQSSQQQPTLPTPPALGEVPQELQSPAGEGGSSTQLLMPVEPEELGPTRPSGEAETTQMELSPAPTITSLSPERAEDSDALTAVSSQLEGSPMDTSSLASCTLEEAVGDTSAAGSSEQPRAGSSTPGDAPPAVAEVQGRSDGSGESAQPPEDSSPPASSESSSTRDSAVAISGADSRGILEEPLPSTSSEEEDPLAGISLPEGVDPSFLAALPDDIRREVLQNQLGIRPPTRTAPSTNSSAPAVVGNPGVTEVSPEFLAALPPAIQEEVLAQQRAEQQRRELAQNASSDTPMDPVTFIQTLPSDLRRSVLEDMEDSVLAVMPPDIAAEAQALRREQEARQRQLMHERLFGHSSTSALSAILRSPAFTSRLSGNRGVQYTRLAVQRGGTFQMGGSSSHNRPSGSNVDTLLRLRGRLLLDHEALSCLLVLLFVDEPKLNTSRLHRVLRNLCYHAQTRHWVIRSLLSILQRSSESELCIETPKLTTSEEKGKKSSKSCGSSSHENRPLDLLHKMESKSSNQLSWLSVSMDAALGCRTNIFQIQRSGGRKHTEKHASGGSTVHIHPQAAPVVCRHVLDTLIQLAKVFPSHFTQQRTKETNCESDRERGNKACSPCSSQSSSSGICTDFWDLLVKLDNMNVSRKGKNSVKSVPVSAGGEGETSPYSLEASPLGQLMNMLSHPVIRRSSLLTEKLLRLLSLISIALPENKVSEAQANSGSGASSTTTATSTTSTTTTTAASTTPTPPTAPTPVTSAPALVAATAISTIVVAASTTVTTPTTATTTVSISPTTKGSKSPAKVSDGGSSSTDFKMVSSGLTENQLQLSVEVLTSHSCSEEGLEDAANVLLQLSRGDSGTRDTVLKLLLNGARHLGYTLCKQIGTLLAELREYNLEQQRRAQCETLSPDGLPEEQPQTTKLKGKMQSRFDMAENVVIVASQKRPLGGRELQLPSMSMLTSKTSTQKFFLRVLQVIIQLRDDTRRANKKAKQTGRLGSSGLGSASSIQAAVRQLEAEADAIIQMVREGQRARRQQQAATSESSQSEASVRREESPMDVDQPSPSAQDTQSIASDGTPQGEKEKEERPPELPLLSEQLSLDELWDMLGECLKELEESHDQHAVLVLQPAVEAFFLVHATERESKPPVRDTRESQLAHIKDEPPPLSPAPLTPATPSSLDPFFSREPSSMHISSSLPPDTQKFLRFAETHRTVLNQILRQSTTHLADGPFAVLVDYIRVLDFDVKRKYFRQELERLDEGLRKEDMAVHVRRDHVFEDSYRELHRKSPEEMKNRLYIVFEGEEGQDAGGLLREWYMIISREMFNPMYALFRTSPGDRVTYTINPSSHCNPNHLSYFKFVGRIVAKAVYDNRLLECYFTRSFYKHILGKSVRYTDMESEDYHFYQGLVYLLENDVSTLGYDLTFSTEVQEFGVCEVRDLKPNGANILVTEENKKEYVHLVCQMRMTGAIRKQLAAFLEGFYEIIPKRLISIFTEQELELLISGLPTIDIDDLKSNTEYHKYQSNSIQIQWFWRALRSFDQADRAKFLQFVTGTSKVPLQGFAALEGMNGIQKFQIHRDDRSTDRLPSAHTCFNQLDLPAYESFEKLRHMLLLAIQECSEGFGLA
# UniProt O00629: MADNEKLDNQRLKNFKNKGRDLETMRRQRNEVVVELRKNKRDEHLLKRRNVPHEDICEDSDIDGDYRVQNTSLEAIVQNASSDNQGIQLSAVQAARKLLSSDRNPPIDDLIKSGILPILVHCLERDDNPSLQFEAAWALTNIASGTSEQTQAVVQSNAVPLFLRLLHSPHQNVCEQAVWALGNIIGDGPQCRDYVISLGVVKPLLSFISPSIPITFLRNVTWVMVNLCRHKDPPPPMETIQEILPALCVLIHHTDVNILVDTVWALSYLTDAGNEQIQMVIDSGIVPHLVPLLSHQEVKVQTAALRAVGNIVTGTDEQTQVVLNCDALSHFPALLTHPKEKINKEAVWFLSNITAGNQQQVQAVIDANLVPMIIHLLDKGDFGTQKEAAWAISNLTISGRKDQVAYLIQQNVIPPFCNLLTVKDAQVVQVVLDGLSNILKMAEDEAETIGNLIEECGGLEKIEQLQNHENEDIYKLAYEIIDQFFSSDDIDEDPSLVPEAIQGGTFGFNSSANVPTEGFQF
# UniProt Q13263: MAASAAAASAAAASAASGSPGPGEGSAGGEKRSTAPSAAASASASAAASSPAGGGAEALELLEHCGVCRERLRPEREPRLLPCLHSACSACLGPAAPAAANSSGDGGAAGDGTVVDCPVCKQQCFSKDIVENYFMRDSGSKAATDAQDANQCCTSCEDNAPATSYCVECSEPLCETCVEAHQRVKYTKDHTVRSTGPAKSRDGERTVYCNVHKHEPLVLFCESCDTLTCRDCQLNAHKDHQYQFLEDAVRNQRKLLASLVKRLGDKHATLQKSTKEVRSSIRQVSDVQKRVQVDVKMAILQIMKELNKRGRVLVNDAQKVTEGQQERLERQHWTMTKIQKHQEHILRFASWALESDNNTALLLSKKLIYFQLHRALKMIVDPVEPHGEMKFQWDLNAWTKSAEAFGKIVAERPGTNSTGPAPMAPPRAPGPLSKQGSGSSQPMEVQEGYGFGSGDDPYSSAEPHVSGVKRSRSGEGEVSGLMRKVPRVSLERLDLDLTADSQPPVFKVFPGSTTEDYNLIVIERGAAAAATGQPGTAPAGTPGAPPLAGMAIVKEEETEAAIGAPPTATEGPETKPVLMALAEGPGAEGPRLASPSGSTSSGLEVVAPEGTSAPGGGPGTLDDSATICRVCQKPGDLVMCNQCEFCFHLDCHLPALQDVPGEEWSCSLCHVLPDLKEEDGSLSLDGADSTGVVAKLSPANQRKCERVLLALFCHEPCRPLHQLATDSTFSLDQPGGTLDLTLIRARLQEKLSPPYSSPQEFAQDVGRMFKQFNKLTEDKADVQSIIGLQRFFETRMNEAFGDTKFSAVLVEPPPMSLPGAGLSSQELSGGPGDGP
# No constants are given. Whether binding was seen depends on the method and setting. Binding seen in cells or lysates may run through a third protein. These calls come from enrichment with a bait or labelling near it, and not all partners need be listed.
# B1: MCM5 (protein, UniProt P33992 1-734)
# chain: MSGFDDPGIFYSDSFGGDAQADEGQARKSQLQRRFKEFLRQYRVGTDRTGFTFKYRDELKRHYNLGEYWIEVEMEDLASFDEDLADYLYKQPAEHLQLLEEAAKEVADEVTRPRPSGEEVLQDIQVMLKSDASPSSIRSLKSDMMSHLVKIPGIIIAASAVRAKATRISIQCRSCRNTLTNIAMRPGLEGYALPRKCNTDQAGRPKCPLDPYFIMPDKCKCVDFQTLKLQELPDAVPHGEMPRHMQLYCDRYLCDKVVPGNRVTIMGIYSIKKFGLTTSRGRDRVGVGIRSSYIRVLGIQVDTDGSGRSFAGAVSPQEEEEFRRLAALPNVYEVISKSIAPSIFGGTDMKKAIACLLFGGSRKRLPDGLTRRGDINLLMLGDPGTAKSQLLKFVEKCSPIGVYTSGKGSSAAGLTASVMRDPSSRNFIMEGGAMVLADGGVVCIDEFDKMREDDRVAIHEAMEQQTISIAKAGITTTLNSRCSVLAAANSVFGRWDETKGEDNIDFMPTILSRFDMIFIVKDEHNEERDVMLAKHVITLHVSALTQTQAVEGEIDLAKLKKFIAYCRVKCGPRLSAEAAEKLKNRYIIMRSGARQHERDSDRRSSIPITVRQLEAIVRIAEALSKMKLQPFATEADVEEALRLFQVSTLDAALSGTLSGVEGFTSQEDQEMLSRIEKQLKRRFAIGSQVSEHSIIKDFTKQKYPEHAIHKVLQLMLRRGEIQHRMQRKVLYRLK
# B2: ACINU (protein, UniProt Q9UKV3 1-1341)
# chain: MWRRKHPRTSGGTRGVLSGNRGVEYGSGRGHLGTFEGRWRKLPKMPEAVGTDPSTSRKMAELEEVTLDGKPLQALRVTDLKAALEQRGLAKSGQKSALVKRLKGALMLENLQKHSTPHAAFQPNSQIGEEMSQNSFIKQYLEKQQELLRQRLEREAREAAELEEASAESEDEMIHPEGVASLLPPDFQSSLERPELELSRHSPRKSSSISEEKGDSDDEKPRKGERRSSRVRQARAAKLSEGSQPAEEEEDQETPSRNLRVRADRNLKTEEEEEEEEEEEEDDEEEEGDDEGQKSREAPILKEFKEEGEEIPRVKPEEMMDERPKTRSQEQEVLERGGRFTRSQEEARKSHLARQQQEKEMKTTSPLEEEEREIKSSQGLKEKSKSPSPPRLTEDRKKASLVALPEQTASEEETPPPLLTKEASSPPPHPQLHSEEEIEPMEGPAPAVLIQLSPPNTDADTRELLVSQHTVQLVGGLSPLSSPSDTKAESPAEKVPEESVLPLVQKSTLADYSAQKDLEPESDRSAQPLPLKIEELALAKGITEECLKQPSLEQKEGRRASHTLLPSHRLKQSADSSSSRSSSSSSSSSRSRSRSPDSSGSRSHSPLRSKQRDVAQARTHANPRGRPKMGSRSTSESRSRSRSRSRSASSNSRKSLSPGVSRDSSTSYTETKDPSSGQEVATPPVPQLQVCEPKERTSTSSSSVQARRLSQPESAEKHVTQRLQPERGSPKKCEAEEAEPPAATQPQTSETQTSHLPESERIHHTVEEKEEVTMDTSENRPENDVPEPPMPIADQVSNDDRPEGSVEDEEKKESSLPKSFKRKISVVSATKGVPAGNSDTEGGQPGRKRRWGASTATTQKKPSISITTESLKSLIPDIKPLAGQEAVVDLHADDSRISEDETERNGDDGTHDKGLKICRTVTQVVPAEGQENGQREEEEEEKEPEAEPPVPPQVSVEVALPPPAEHEVKKVTLGDTLTRRSISQQKSGVSITIDDPVRTAQVPSPPRGKISNIVHISNLVRPFTLGQLKELLGRTGTLVEEAFWIDKIKSHCFVTYSTVEEAVATRTALHGVKWPQSNPKFLCADYAEQDELDYHRGLLVDRPSETKTEEQGIPRPLHPPPPPPVQPPQHPRAEQREQERAVREQWAEREREMERRERTRSEREWDRDKVREGPRSRSRSRDRRRKERAKSKEKKSEKKEKAQEEPPAKLLDDLFRKTKAAPCIYWLPLTDSQIVQKEAERAERAKEREKRRKEQEEEEQKEREKEAERERNRQLEREKRREHSRERDRERERERERDRGDRDRDRERDRERGRERDRRDTKRHSRSRSRSTPVRDRGGRR
# B3: MCM6 (protein, UniProt Q14566 1-821)
# chain: MDLAAAAEPGAGSQHLEVRDEVAEKCQKLFLDFLEEFQSSDGEIKYLQLAEELIRPERNTLVVSFVDLEQFNQQLSTTIQEEFYRVYPYLCRALKTFVKDRKEIPLAKDFYVAFQDLPTRHKIRELTSSRIGLLTRISGQVVRTHPVHPELVSGTFLCLDCQTVIRDVEQQFKYTQPNICRNPVCANRRRFLLDTNKSRFVDFQKVRIQETQAELPRGSIPRSLEVILRAEAVESAQAGDKCDFTGTLIVVPDVSKLSTPGARAETNSRVSGVDGYETEGIRGLRALGVRDLSYRLVFLACCVAPTNPRFGGKELRDEEQTAESIKNQMTVKEWEKVFEMSQDKNLYHNLCTSLFPTIHGNDEVKRGVLLMLFGGVPKTTGEGTSLRGDINVCIVGDPSTAKSQFLKHVEEFSPRAVYTSGKASSAAGLTAAVVRDEESHEFVIEAGALMLADNGVCCIDEFDKMDVRDQVAIHEAMEQQTISITKAGVKATLNARTSILAAANPISGHYDRSKSLKQNINLSAPIMSRFDLFFILVDECNEVTDYAIARRIVDLHSRIEESIDRVYSLDDIRRYLLFARQFKPKISKESEDFIVEQYKHLRQRDGSGVTKSSWRITVRQLESMIRLSEAMARMHCCDEVQPKHVKEAFRLLNKSIIRVETPDVNLDQEEEIQMEVDEGAGGINGHADSPAPVNGINGYNEDINQESAPKASLRLGFSEYCRISNLIVLHLRKVEEEEDESALKRSELVNWYLKEIESEIDSEEELINKKRIIEKVIHRLTHYDHVLIELTQAGLKGSTEGSESYEEDPYLVVNPNYLLED
# B4: MCM3 (protein, UniProt P25205 1-808)
# chain: MAGTVVLDDVELREAQRDYLDFLDDEEDQGIYQSKVRELISDNQYRLIVNVNDLRRKNEKRANRLLNNAFEELVAFQRALKDFVASIDATYAKQYEEFYVGLEGSFGSKHVSPRTLTSCFLSCVVCVEGIVTKCSLVRPKVVRSVHYCPATKKTIERRYSDLTTLVAFPSSSVYPTKDEENNPLETEYGLSVYKDHQTITIQEMPEKAPAGQLPRSVDVILDDDLVDKAKPGDRVQVVGTYRCLPGKKGGYTSGTFRTVLIACNVKQMSKDAQPSFSAEDIAKIKKFSKTRSKDIFDQLAKSLAPSIHGHDYVKKAILCLLLGGVERDLENGSHIRGDINILLIGDPSVAKSQLLRYVLCTAPRAIPTTGRGSSGVGLTAAVTTDQETGERRLEAGAMVLADRGVVCIDEFDKMSDMDRTAIHEVMEQGRVTIAKAGIHARLNARCSVLAAANPVYGRYDQYKTPMENIGLQDSLLSRFDLLFIMLDQMDPEQDREISDHVLRMHRYRAPGEQDGDAMPLGSAVDILATDDPNFSQEDQQDTQIYEKHDNLLHGTKKKKEKMVSAAFMKKYIHVAKIIKPVLTQESATYIAEEYSRLRSQDSMSSDTARTSPVTARTLETLIRLATAHAKARMSKTVDLQDAEEAVELVQYAYFKKVLEKEKKRKKRSEDESETEDEEEKSQEDQEQKRKRRKTRQPDAKDGDSYDPYDFSDTEEEMPQVHTPKTADSQETKESQKVELSESRLKAFKVALLDVFREAHAQSIGMNRLTESINRDSEEPFSSVEIQAALSKMQDDNQVMVSEGIIFLI
# B5: RNPS1 (protein, UniProt Q15287 1-305)
# chain: MDLSGVKKKSLLGVKENNKKSSTRAPSPTKRKDRSDEKSKDRSKDKGATKESSEKDRGRDKTRKRRSASSGSSSTRSRSSSTSSSGSSTSTGSSSGSSSSSASSRSGSSSTSRSSSSSSSSGSPSPSRRRHDNRRRSRSKSKPPKRDEKERKRRSPSPKPTKVHIGRLTRNVTKDHIMEIFSTYGKIKMIDMPVERMHPHLSKGYAYVEFENPDEAEKALKHMDGGQIDGQEITATAVLAPWPRPPPRRFSPPRRMLPPPPMWRRSPPRMRRRSRSPRRRSPVRRRSRSPGRRRHRSRSSSNSSR
# B6: SAP18 (protein, UniProt O00422 1-153)
# chain: MAVESRVTQEEIKKEPEKPIDREKTCPLLLRVFTTNNGRHHRMDEFSRGNVPSSELQIYTWMDATLKELTSLVKEVYPEARKKGTHFNFAIVFTDVKRPGYRVKEIGSTMSGRKGTDDSMTLQSQKFQIGDYLDIAITPPNRAPPPSGRMRPY
# Biological target: Strep-HA-DAXX-WT (human) (UniProt Q9UER7)
# Assay: affinity purification with mass spectrometry; triple SILAC IP-MS: Strep-HA-tagged chaperone (WT, mutant, control cells) held on MagStrep type3 XT beads for 3 hrs at 4 °C from soluble HeLa S3 extracts (300 mM NaCl, 0.05 % Nonidet P40, 50 mM Tris.HCl pH 7.6); washes at 150 mM NaCl; eluted with BXT buffer
row,binding,Molecule
1,binds,HUWE1 (from UniProt Q7Z6Z7 1-4374)
2,binds,IMA3/KPNA4 (from UniProt O00629 1-521)
3,binds,MCM2 (from UniProt P49736 1-904)
4,binds,TIF1B/TRIM28/KAP1 (from UniProt Q13263 1-835)
5,binds,B1
6,binds,B2
7,binds,B3
8,binds,B4
9,binds,B5
10,binds,B6
